Laboratory results as given in PMC5809613.
These are yes or no findings as the source states them, for the method shown. In cells and extracts the contact can be indirect. These calls come from enrichment with a bait or labelling near it, and not all partners need be listed.

Protein sequences, listed by entry. Tags and fused reporters are not part of them.
UniProt P63027: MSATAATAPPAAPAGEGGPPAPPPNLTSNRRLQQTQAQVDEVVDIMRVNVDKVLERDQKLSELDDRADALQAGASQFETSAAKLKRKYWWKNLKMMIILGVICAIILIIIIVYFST
UniProt P60660: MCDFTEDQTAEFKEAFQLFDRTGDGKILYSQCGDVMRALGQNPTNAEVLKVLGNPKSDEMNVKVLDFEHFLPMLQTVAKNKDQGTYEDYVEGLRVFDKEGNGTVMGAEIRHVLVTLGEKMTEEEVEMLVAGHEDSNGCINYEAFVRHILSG

Molecular target: Synaptobrevin/vesicle-associated membrane protein 2 (human (endogenous in submandibular gland)) (UniProt P63027)
Assay: co-IP + affinity purification with mass spectrometry; lysates of control and transplanted human submandibular glands, precleared with protein A/G-agarose, incubated with anti-VAMP-2 antibody-coated protein A/G overnight at 4°C, washed with lysis buffer; SDS/PAGE, Coomassie-stained bands identified by nano-LC-ESI-MS/MS; band intensities normalized to VAMP-2

Molecule	binding
myosin light polypeptide 6 (from UniProt P60660 1-151)	binds
myosin regulatory light polypeptide 9 (protein, UniProt P24844 1-172) MSSKRAKAKTTKKRPQRATSNVFAMFDQSQIQEFKEAFNMIDQNRDGFIDKEDLHDMLASLGKNPTDEYLEGMMSEAPGPINFTMFLTMFGEKLNGTDPEDVIRNAFACFDEEASGFIHEDHLRELLTTMGDRFTDEEVDEMYREAPIDKKGNFNYVEFTRILKHGAKDKDD	binds
